From PubChem BioAssay AID2685 (National Center for Advancing Translational Sciences (NCATS), 2010)
In all, about 320,000 compounds went through this assay and about 2,100 (0.66%) were called active. The shares of active, inactive and inconclusive entries below differ from those in the screen. Calls follow the shape of the dose curve; as a rule, active = well fitted inhibition curve with a large enough effect in the signal ratio, with a control signal flat (not every such curve was filed as active); inconclusive = small, poorly fitted or top-dose-only effect, or effect the other way, or a change in a side signal; inactive = flat fitted curve, though single readings scatter; the % refers to the signal ratio. A potency beside an inconclusive call is a rough fit, not a confirmed value.

Test: qHTS Assay for Lipid Storage Modulators in Drosophila S3 Cells
Details: BODIPY lipid droplet fluorescence, 18-24 h, cells fed with added oleic acid; lipid storage change, negative = inhibition: at 46.1 µM (top of the series) unless noted
Outline: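 Drosophila S3 cells loaded with oleic acid (400 uM, as added) and compounds at several concentrations; lipid droplets imaged by 488-nm laser-scanning cytometry, 500–530 nm intensity and object ratio to cell channel. Percent activity normalized to 20 uM Triacsin C.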
% is scaled to controls: 0 for no effect and ±100 for the full control effect; potency is read from the fitted curve at half-maximal effect.

Row | SMILES | lipid storage change, negative = inhibition | Potency
1 | CCn1c(COC(=O)CNC(=O)c2ccccc2)nc2cc(S(=O)(=O)N(C)C)ccc21 | inconclusive | 
2 | O=C(CSc1nnc(Cc2ccccc2)o1)N1CCCc2ccccc21 | inconclusive: 96.8% | 
3 | Cc1nc2nc(C)c(CCC(=O)NCCC3=CCCCC3)c(C)n2n1 | inconclusive: 13.9% | 
4 | CCCCn1cnc2c(sc3nc4c(cc32)CSC(C)(C)C4)c1=O | inconclusive: 0.428% | 
5 | O=c1[nH]c(=O)n(Cc2ccco2)c2c1C(C(F)(F)F)(C(F)(F)F)N=C(CCc1ccccc1)N2 | inconclusive: -23.2% | 
6 | CS/C(N)=N/N=C/c1ccc2c(c1)OCO2 | inconclusive: 7.97% | 
7 | COc1ccc(NC(=O)c2ccccn2)cc1 | inconclusive: 17.3% | 
8 | Cc1cccc(C)c1NC(=O)CN(C)C(=O)CN1C(=O)NC2(CCCC2)C1=O | inconclusive: -12.8% | 
9 | Cc1ccc(NC(=O)CSc2nc(=O)n(CCCN3CCOCC3)c3c2CCCC3)cc1F | inconclusive | 
10 | CCn1c(SCC(=O)Nc2ccc(F)cc2)nnc1-c1cnccn1 | inconclusive: 14.7% | 
11 | CCOc1ccccc1OCCn1ncc2ccc(OC)c(OC)c2c1=O | inactive | 
12 | CCCCCCNC(=O)c1c(O)c2ccccc2[nH]c1=O | inconclusive: -14.8% | 
13 | Cc1[nH]n(-c2ccccc2)c(=O)c1N=Nc1ccccc1 |  | inconclusive: 18.4 µM [falling, partial curve, poor fit]
14 | COc1ccc(N=c2oc3c(OC)cccc3cc2C(=O)NCc2ccco2)cc1OC |  | inconclusive: 0.58 µM [activator, single point]
15 | CCN(CC)CCNC(=O)c1cc(-c2ccc(Br)s2)nc2ccccc12 | inconclusive: 12.9% | 
16 | Cc1ccccc1OCC(=O)Nc1ccccc1-c1ccccc1NC(=O)COc1ccccc1C |  | inconclusive: 5.8 µM [activator, partial curve]
17 | C/C(=N/NC(=O)c1ccn(C)n1)c1ccncc1 | inconclusive: 1.88% | 
18 | COC(=O)C(=Nc1ccccc1)/C(C(=O)C(=O)N(C)c1ccccc1)=C(\O)c1ccc(Cl)cc1 | inconclusive: -50.9% | 
19 | CCOc1ccc(-n2cc(C(=O)N3CCCCCC3)c3cc(OC)c(OC)cc3c2=O)cc1 |  | inconclusive: 1.84 µM [falling, single point]
20 | CCC1(c2ccccc2)NC(=O)N(CC(=O)Nc2cccc(S(=O)(=O)N3CCCC3)c2)C1=O (stereo unspecified) |  | inconclusive: 2.31 µM [activator, partial curve, poor fit]
21 | Cc1cc(C)n(CC(=O)NCc2cc(-c3nn(C)c(=O)c4ccccc34)ccc2C)n1 | inconclusive: 15.6% | 

Reprinted: entries 6–7
Row | SMILES | lipid storage change, negative = inhibition | Potency
6 | CS/C(N)=N/N=C/c1ccc2c(c1)OCO2 | inconclusive: 7.97% | 
7 | COc1ccc(NC(=O)c2ccccn2)cc1 | inconclusive: 17.3% | 
